Taken from: PubChem BioAssay AID1508588 (Peter MacCallum Cancer Centre, 2020)
Assay: 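Which gene losses make BRAF-mutant melanoma cells more responsive to vemurafenib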 (primary screen). System: human WM266.4 melanoma cells (BRAF V600 mutant). Knock-down reagent: siRNA pool against human genes, 40 nM. Duration: 96 h from transfection to read-out. Treatment: vemurafenib 300 nM (about IC25), added 48 h after transfection, for 48 h; comparison arm got DMSO vehicle only. Detection: 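Ratios to non-targeting siRNA for cell gain, counted as DAPI nuclei after minus before drug and averaged over two replicates, and for absorbance-read medium lactate per cell; both binned into fold-change classes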. Scale: cell gain with vemurafenib: higher = more cell gain than with non-targeting siRNA; lactate per cell with vemurafenib: higher = more lactate made per cell. Hit rule: 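Enhancement is called by pairing each knock-down's vehicle-arm and drug-arm fold-change classes for viability or glycolysis; which class combinations qualify is not given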. Calls: active = enhances vemurafenib effect; inactive = no enhancement seen.
This is a random part of about 18,000 reagents. 790 of them (4.4%) count as active. 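Calls rest on a combination of fold-change classes in drug and vehicle arms, not all shown here.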 Unmarked entries are inactive. Some reagents were tested in more than one well and are listed for each.

Target gene,cell gain with vemurafenib,lactate per cell with vemurafenib
TRIB2,0.1,1.44
KLHL20,0.28,2.16
SLC7A2,0.84,1.31
ATP5MJ,0.52,1.56
PYDC1,0.51,0.84
GCNA,-0.03,1.19
CD84,0.83,0.62
RPS10,0,1.34
TBK1,0.99,0.54
TCAIM,0.59,0.66
TLL2,-0.12,0.69
CWH43,0.29,1.6
OMG,0.79,0.58
DAZAP1,1.16,0.42
SRP54,0.45,0.5
MMS22L,0.46,1.16
SPDYE3,0.73,0.82
PTPDC1,0.58,1.02
GFRA4,0.71 (active),0.46
VGLL2,0.32,2.4
WT1,0.72,1.58
P3H1,0.78,0.38
CSNK1E,0.13,2.09
WDR88,0.49 (active),0.48
ZNF544,0.6,0.88
PLEKHO1,0.75,1.21
VCPKMT,0.85,0.8
COL4A4,0.57,0.88
RFPL2,0.96,0.73
OTOGL,0.66,0.78
NUP43,0.2,2.29
PLTP,1.21,0.57
CPA6,0.86,1.16
SPON1,0.16,0.92
NPPB,0.73,0.7
MROH7,0.6,1.84
ROCK2,0.67,1.25
OARD1,0.43,0.76
GPHB5,0.67,0.4
ITGAM,0.62,0.79
DDIT3,-0.13,1.29
ST6GALNAC2,0.77,1.02
COL12A1,0.36,1.38
SLC22A6,0.75,0.38
LYZL1,0.48 (active),0.47
ERICH3,0.42,1.23
CT47A9,0.81,0.54
CUL9,1.12,0.9
TRAM1,0.18 (active),0.4
ZNF275,0.93,0.52
ZBTB35,0.46,0.68
LMBRD1,0.19,1.36
JMJD4,0.19,1.23
ZNF334,1.03,0.34
EFNB3,0.28,1.75
MKKS,0.67,1.16
TTLL7,1.23,0.88
SARS1,0.18,0.62
H1-5,0.31,0.74
LPIN3,0.72,0.48
HMOX1,0.94,0.9
TCF12,0.36,1.78
CHI3L2,0.84,0.86
LSM5,0.29,1.61
SNX12,0.68,0.85
ZDHHC17,0.83,0.81
CRIPTO,0.33,1.75
LOC644006,1.08,0.7
LOC644006,0.5,0.92
RASGRP1,0.77,0.46
HSFY1,0.86,0.91
PLCD4,0.55,1
LRR1,0.66,1.08
PPIB,0.63,0.79
C1QA,0.05,0.66
KLC1,0.51,1.62
SOX13,0.22,2.42
CRYGD,0.84,0.72
SERPINE2,0,1.95
NOXA1,0.27,0.39
FARSB,0.54,0.84
SIK3,0.4,1.23
EIF2S1,0.02,2.77
CSPP1,0.5,0.86
PLGRKT,1.17,0.38
ZFC3H1,0.08,1.04
LRIG1,0.83,1.05
IL5,0.89,0.86
GPS2,1.06,1.12
EMX2,0.48,0.96
PRKAG2,1.02,0.7
SPAG6,0.18,0.8
SPATA22,1.05,0.54
ADGRF1,1.05,0.99
DHRS12,0.98,0.77
PAH,0.39,1.89
FASLG,0.28,1.7
NOMO2,0.9,0.68
POLR3E,0.41,1.82
REM2,0.16,1.21
THOC6,0.91,0.82
LIMS3,0.85,1.31
ZNF669,0.01,1.52
LMBRD2,0.46,1.11
ZBTB3,0.54,0.62
ZNF708,0.64,1.34
NT5DC2,0.7,1.43

Reagents listed so far marked active, once more:
Target gene,cell gain with vemurafenib,lactate per cell with vemurafenib
GFRA4,0.71 (active),0.46
WDR88,0.49 (active),0.48
LYZL1,0.48 (active),0.47
TRAM1,0.18 (active),0.4
